Patent US20070148201A1
No constants are given. Whether binding was seen depends on the method and setting. Some binding calls cover weakened binding; strength is not graded here.

Chains of the proteins cited; added tags and fusions are not shown. Lines headed by an entry give the natural chain unless they say otherwise; changes in a name come on top. Residues count along the entry.
UniProt P02791: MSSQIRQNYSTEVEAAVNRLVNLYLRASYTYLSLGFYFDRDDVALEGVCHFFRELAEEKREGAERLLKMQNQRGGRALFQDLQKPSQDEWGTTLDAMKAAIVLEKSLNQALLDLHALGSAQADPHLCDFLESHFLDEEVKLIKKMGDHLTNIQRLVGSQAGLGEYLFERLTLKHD
UniProt Q8MIP0: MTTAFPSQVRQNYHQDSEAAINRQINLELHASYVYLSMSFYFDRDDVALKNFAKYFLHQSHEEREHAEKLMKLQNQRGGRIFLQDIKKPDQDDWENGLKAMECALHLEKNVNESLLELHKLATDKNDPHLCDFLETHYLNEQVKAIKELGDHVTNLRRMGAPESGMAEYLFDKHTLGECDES
UniProt P29965, residues 47-261: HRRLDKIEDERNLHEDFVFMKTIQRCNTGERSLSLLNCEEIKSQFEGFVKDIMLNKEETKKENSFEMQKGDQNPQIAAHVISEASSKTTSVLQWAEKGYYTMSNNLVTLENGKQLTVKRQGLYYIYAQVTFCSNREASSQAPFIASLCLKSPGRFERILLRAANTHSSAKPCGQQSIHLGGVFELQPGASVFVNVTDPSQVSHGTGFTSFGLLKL
UniProt Q08722: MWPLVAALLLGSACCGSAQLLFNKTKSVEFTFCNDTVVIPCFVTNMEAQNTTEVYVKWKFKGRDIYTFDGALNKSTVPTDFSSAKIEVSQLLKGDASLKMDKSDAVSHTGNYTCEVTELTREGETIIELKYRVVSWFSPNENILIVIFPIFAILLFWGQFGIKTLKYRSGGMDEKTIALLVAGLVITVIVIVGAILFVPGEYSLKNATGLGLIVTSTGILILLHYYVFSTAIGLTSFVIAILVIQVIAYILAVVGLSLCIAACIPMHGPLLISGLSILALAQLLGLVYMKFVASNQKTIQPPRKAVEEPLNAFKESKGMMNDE

Assays:
[1] = biological target: T1, type I horse ferritin (horse) (UniProt P02791+Q8MIP0); experiment: ELISA: ferritin coated on the plate, BBP mutein titrated 0-1000 nM, detected with anti-T7 antibody-HRP, fluorescence (Example 12)
[2] = biological target: T1, type I horse ferritin (horse); experiment: secondary high-throughput ELISA screening, crude cell extract, ferritin coated on plate
[3] = biological target: T1, type I horse ferritin (horse); experiment: ELISA, ferritin coated on plate (FIG. 8)
[4] = biological target: extracellular domain of human CD154 (human) (UniProt P29965); experiment: colony screening, mutein as Strep-tag II/albumin-binding domain fusion held on HSA membrane, 100 nM digoxigenin-conjugated CD154, anti-digoxigenin Fab-AP detection
[5] = biological target: extracellular domain of human CD154 (human) (UniProt P29965); experiment: ELISA: CD154 coated on the plate, BBP mutein titrated 0-2000 nM, detected with anti-Strep-tag II antibody-HRP, fluorescence (Example 17)
[6] = biological target: extracellular domain of human CD154 (human) (UniProt P29965); experiment: ELISA, CD154 coated on plate (FIG. 11)
[7] = biological target: extracellular domain of human CD47 (amino acids 1 to 119 of the mature protein, Cys15 to Ala) with Strep-tag II (human) (UniProt Q08722); experiment: ELISA: CD47 coated on the plate, BBP mutein titrated 0-2000 nM, detected with anti-T7 antibody-HRP, fluorescence (Example 8)
[8] = biological target: extracellular domain of human CD47 (amino acids 1 to 119 of the mature protein, Cys15 to Ala) with Strep-tag II (human) (UniProt Q08722); experiment: phage-ELISA screening, mutein displayed on phagemids (pIII fusion), CD47 coated on plate, anti-M13-HRP detection
[9] = biological target: extracellular domain of human CD47 (amino acids 1 to 119 of the mature protein, Cys15 to Ala) with Strep-tag II (human) (UniProt Q08722); experiment: phagemid ELISA screening, BBP mutein displayed on phagemids, CD47 immobilized on plate, anti-M13 antibody-HRP detection
[10] = biological target: extracellular domain of human CD47 (amino acids 1 to 119 of the mature protein, Cys15 to Ala) with Strep-tag II (human) (UniProt Q08722); experiment: ELISA, CD47 coated on plate (FIG. 6)

Binder	binding [1]	binding [2]	binding [3]	binding [4]	also measured
BBP mutein Fer-I21 (designed binder) DVYHDGACPEVKPVDNFDWSQYHGKWWEVAKYPNQKEKWGKCGWAEYTPEGKSVKVSNYHVIKRPERFIEGTAYPVGDSKIGKIYHSLTRLGKTKENVFNVLSTDNKNYIIGYYCLYPEGWKGHKDFVWVLSRSMVLTGEAKTAVENYLIGSPVVDSQKLVYSDFSEAACKVNN	binds	binds	binds		
BBP mutein Fer-N22 (designed binder) DVYHDGACPEVKPVDNFDWSQYHGKWWEVAKYPNGGESPGKCGWAEYTPEGKSVKVSNYHVIKKRERFIEGTAYPVGDSKIGKICHSLTWSGLTKENVFNVLSTDNKNYIIGYYCKYKERKKGHGDFVWVLSRSMVLTGEAKTAVENYLIGSPVVDSQKLVYSDFSEAACKVNN	binds	binds	binds		
BBP mutein CD154-13-10-1 (designed binder) DVYHDGACPEVKPVDNFDWSQYHGKWWEVAKYPNQIEQGGKCGWAEYTPEGKSVKVSNYHVIYASEDFIEGTAYPVGDSKIGKIYHSLTSSGVTKENVFNVLSTDNKNYIIGYYCGYREAPKGHMDFVWVLSRSMVLTGEAKTAVENYLIGSPVVDSQKLVYSDFSEAACKVNN				binds	binding [5]: binds; binding [6]: binds
BBP mutein CD47-G6 (designed binder) DVYHDGACPEVKPVDNFDWSQYHGKWWEVAKYPNRREKFGKCGWAEYTPEGKSVKVSNYHVIRWGERFIEGTAYPVGDSKIGKIYHSLTLPGYTKENVFNVLSTDNKNYIIGYYCKYLERLKGHADFVWVLSRSMVLTGEAKTAVENYLIGSPVVDSQKLVYSDFSEAACKVNN					binding [7]: binds; binding [8]: binds; binding [9]: binds; binding [10]: binds
BBP mutein CD154-13-10-2 (designed binder) DVYHDGACPEVKPVDNFDWSQYHGKWWEVAKYPNGTEESGKCGWAEYTPEGKSVKVSNYHVITQGEKFIEGTAYPVGDSKIGKIYHSLTRPGLTKENVFNVLSTDNKNYIIGYYCDYMECKKGHEDFVWVLSRSMVLTGEAKTAVENYLIGSPVVDSQKLVYSDFSEAACKVNN				binds	

Further lines, with some results ahead:

binding [1]	binding [2]	binding [3]	binding [4]	Binder	also measured
binds	binds	binds		BBP mutein Fer-O20 (designed binder) DVYHDGACPEVKPVDNFDWSQYHGKWWEVAKCPSGKGRAGKCGWAEFTPEGKSVKVSRYDVIPAPELFMEGTAYPVGDPKIGKIYHSRTNKGLTKKTVFNVLSTDNKNYIIGYSCKYGEDQKGHKDHVWVLSRSMVLTGEAKTAVENYLIGSPVVDSQKLVYSDFSEAACKVNN	
binds	binds	binds		BBP mutein Fer-N21 (designed binder) DVYHDGACPEVKPVDNFDWSQYHGKWWEVAKYPSNRGSKGKCGWAEYTPEGKSVKVSRYDVIPRLEAFMEGTAYPVGDSKIGKIYHSRTSKGKTKKTVFNVLSTDNKNYIIGYSCIYNERYKGHYDHVWVLSRSMVLTGEAKTAVENYLIGSPVVDSQKLVYSDFSEAACKVNN	
			binds	BBP mutein CD154-13-10-4 (designed binder) DVYHDGACPEVKPVDNFDWSQYHGKWWEVAKYPNSHETGGKCGWAEYTPEGKSVKVSNYHVITPHERFIEGTAYPVGDSKIGKIYHSLTWIGTTKENVFNVLSTDNKNYIIGYYCSYSEAGKGHQDFVWVLSRSMVLTGEAKTAVENYLIGSPVVDSQKLVYSDFSEAACKVNN	binding [5]: binds; binding [6]: binds
binds	binds	binds		BBP mutein Fer-P4 (designed binder) DVYHDGACPEVKPVDNFDWSQYHGKWWEVAKYPSKGGEKGKCGWAEYTPEGKSVKVSRYDVILSSEPFMEGTAYPVGDSKIGKIYHSRTKKGETKKTVFNVLSTDNKNYIIGYSCGYCECRKGHADHVWVLSRSMVLTGEAKTAVENYLIGSPVVDSQKLVYSDFSEAACKVNN	
	binds			BBP mutein Fer-D24 (designed binder) DVYHDGACPEVKPVDNFDWSQYHGKWWEVAKYPSKKGKQGKCGWAEYTPEGKSVKVSRYDVIPCLESFMEGTAYPVGDSKIGKIYHSRTKPGRTKKTVFNVPSTDNKNYIIGYSCVYPEGRKGHRDHVWVLSRSMVLTGEAKTAVENYLIGSPVVDSQKLVYSDFSEAACKVNN	
